Measurements reported in publication PMC4374696, “Protease Activity of PprI Facilitates DNA Damage Response: Mn(2+)-Dependence and Substrate Sequence-Specificity of the Proteolytic Reaction”.
The exact form of at least one protein or probe is not confirmed. Weaker means in comparison with the reference protein, sequence or condition of that experiment. Protein sequences can lack the tags named with them.

Target: T1, DdrO (Deinococcus radiodurans R1 (ATCC 13939)) (UniProt Q9RRB8)
T1 sequence (looked up, limits assumed): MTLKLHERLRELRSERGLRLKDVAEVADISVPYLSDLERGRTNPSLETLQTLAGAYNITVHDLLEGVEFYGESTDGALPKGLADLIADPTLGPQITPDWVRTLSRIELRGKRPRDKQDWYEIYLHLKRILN
Test: EMSA
Settings: 10 uM DdrO with PprI protease 0.06-8 uM, complex gradually weakened; 150 mM NaCl, 20 mM Tris-HCl pH 8.0, 5 mM MgCl2, 1.6 uM DNA, 0-16 uM protein, 30 C; 12% TB-PAGE; recombinant protein; protein details: 6xHis-MBP tag removed by TEV; probe letters rebuilt from the primers and the genome

Row | Sequence | binding result
1 | AGAAACACCAGCATGATCGCAAGGTAGGCTGCTCCGCGCACTGGGGCGTCCGCCGAAAGGTGCAGCGCGCCTCACCTTCCCTTGACCCATCCCATTCAGGGCCGCACCCTGTAGACACTGGTTACGTCCTCCCATATACTCCGGTGAGGTTGTTATGCTGCTAGCAGAAATCATCAGTGTGGGCACG (double strand) [PrecA (recA promoter, RDRM)] | binds more weakly
2 | TACTGCGGTCTGACGATGACCTCGTCCTTATCTGCGGGAGCCTCTATCTGCTCGGCGAACTGCGTCCTTTGCTGCTGGGCGAGCAGTCGGAAGGCCACGAACGCTGGCAATAGCCACAGCAGCGGCCAATTTCTGGTTTCGAAACAGGAATAAGGCAAGTTGACTGCCCTCATTCTGTATTGACCGTAGCAAGGAGCGGTGTTACACT (double strand) [PddrO] | binds more weakly
